Primary screen of a compound library

Chains of the proteins cited; added tags and fusions are not shown.
UniProt I6X8D2, whole entry: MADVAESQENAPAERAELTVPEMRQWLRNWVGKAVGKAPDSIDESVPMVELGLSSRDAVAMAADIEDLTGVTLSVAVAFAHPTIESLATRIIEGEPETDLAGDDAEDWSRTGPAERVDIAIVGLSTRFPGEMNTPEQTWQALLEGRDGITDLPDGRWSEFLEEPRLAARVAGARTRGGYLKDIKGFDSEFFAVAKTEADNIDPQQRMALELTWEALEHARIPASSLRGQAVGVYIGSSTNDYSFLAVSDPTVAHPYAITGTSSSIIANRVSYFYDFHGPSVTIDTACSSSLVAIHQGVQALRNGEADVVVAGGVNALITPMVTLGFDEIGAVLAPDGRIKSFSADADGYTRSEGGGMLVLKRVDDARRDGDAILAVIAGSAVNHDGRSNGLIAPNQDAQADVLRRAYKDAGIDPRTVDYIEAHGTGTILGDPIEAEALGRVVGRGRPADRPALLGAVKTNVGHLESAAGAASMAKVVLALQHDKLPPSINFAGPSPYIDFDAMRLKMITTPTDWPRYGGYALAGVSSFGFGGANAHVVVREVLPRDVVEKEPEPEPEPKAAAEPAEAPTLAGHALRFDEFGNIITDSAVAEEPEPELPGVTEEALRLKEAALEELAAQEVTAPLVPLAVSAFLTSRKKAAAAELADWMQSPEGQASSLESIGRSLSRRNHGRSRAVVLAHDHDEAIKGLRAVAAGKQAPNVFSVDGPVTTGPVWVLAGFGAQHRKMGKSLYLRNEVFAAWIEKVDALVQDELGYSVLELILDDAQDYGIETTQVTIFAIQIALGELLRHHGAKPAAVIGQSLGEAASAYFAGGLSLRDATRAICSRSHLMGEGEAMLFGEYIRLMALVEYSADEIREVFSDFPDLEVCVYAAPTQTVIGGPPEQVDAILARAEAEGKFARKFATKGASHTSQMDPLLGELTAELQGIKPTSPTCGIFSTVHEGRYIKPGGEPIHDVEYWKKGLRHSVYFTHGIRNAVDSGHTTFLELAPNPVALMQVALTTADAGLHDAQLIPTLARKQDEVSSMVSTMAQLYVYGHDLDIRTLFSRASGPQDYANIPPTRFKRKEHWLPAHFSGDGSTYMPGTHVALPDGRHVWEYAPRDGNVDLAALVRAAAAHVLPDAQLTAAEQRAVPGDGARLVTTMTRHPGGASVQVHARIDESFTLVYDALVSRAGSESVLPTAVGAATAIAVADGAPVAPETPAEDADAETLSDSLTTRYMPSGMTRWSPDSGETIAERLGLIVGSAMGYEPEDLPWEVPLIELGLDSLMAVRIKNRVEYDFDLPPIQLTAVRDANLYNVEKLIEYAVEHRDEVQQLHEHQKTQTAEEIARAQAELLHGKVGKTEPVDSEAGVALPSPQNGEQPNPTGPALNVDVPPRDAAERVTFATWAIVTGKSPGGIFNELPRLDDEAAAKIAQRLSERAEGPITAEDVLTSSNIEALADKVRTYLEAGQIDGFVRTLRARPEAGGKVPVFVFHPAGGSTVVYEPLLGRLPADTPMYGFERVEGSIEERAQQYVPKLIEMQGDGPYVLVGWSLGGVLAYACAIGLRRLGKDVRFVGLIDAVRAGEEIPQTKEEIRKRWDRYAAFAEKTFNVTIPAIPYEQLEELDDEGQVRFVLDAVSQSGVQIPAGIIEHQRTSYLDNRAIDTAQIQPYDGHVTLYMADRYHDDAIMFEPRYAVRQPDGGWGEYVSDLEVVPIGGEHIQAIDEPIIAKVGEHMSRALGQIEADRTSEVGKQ

Values are the deposited “Percent Effect”, in %.
How 0% and 100% were set is not recorded. Most values in the screen are low, and negative values occur.
Compounds were drawn at random from those tested, without regard to their results.
A dash means the value is not listed here; it may have been measured.

A: 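Assay of Toxoplasma gondii numbers, read through their beta-galactosidase reporter with a colour substrate. Concentration: 10 µM. Higher reads as fewer parasites (inferred from which compounds were picked for retests). Size under these conditions: about 67,000 compounds, about 260 of them at 50% or above in at least one test.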
B: 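Enzyme assay of the thioesterase domain of polyketide synthase 13; the read-out is not stated. Target: Polyketide synthase Pks13, Mycobacterium tuberculosis (UniProt I6X8D2). Compounds at 30 µM. Higher reads as stronger inhibition (inferred from which compounds were picked for retests). About 67,000 compounds were tested under these conditions; 0.46% (about 300) showed 50% or more at least once.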

- CS(=O)(=O)CCOCCNc1ccc(C(F)(F)F)cc1C#N : A: 11.3%; B: -23.93%
- [H][C@]12CCN(C(=O)c3ccncc3F)[C@@]1([H])CC[C@@H](COCC)O2 : A: -0.2971%
- CCc1nc2c(N3CCCC(c4nccn4CCOC)C3)ncnc2o1 (centres undefined) : A: -3.558%; B: -9.212%
- CC[C@H]1CN2CC[C@H]1C[C@@H]2CNC(=O)NC1CCCCC1 : B: -22.83%
- CCOc1ccc(NC2CCN(C(C)C)C2=O)cn1 (centres undefined) : B: 9.834%
- CC(C)N(C)Cc1nnc2n1CCN(S(=O)(=O)C1CC1)CC2.O=C(O)C(F)(F)F : A: -3.402%
- CC(CCc1ccccc1)NC(=O)CNCCCN1CCOCC1 (centres undefined) : B: -2.635%
- CN(Cc1cc(-c2cccnc2)no1)C(=O)[C@@H]1CSCN1C : A: 7.306%; B: -49.98%
- O=C(O)C(F)(F)F.O=C(O)C(F)(F)F.[H][C@@]12OCCN(CC3CC3)[C@@]1([H])CC[C@H]2OCCCn1cccn1 : A: 13.9%
- Cc1cc(C)c2nc(CN3CCOCC(O)C3)cc(O)c2c1 (centres undefined) : A: -10.27%; B: -15.61%
- CC(C)c1noc([C@@H]2Cc3[nH]cnc3CN2C(=O)Nc2ccccc2)n1 : A: -2.703%; B: 15.46%
- CC(C)CC(NC(=O)CN(C)c1cnccn1)c1cccs1 (centres undefined) : A: 4.432%; B: -27.75%
- O=C(OCc1cc(=O)n2cc(Br)ccc2n1)c1ccc2c(c1)OCO2 : A: -8.73%; B: -6.3%
- CCN1CCC2(CC1)CC(NCc1cccs1)c1ccccc1O2.O=C(O)C(F)(F)F.O=C(O)C(F)(F)F (centres undefined) : A: 22.24%
- COc1c(CNCc2cccc(CN3CCOCC3)c2)c(C)nn1C : A: 1.006%; B: -36.09%
- CS(=O)(=O)c1ccc(Cl)c(NC(=O)NCCC2=CCCCC2)c1 : A: -8.063%; B: -9.694%
- Cc1ccc(C(=O)N2CCN(CC(C)O)CC2)cc1S(C)(=O)=O (centres undefined) : A: 2.688%; B: -36.19%
- COc1ccc2cc(CN(C)CCN3CCCCC3=O)c(=O)[nH]c2c1 : A: -15.67%; B: 18.43%
- COc1c(CNCCc2c[nH]c3cc(F)ccc23)c(C(C)C)nn1C : A: 17.7%; B: 0.3387%
- Cc1noc(CCCC(=O)Nc2cc(C(F)(F)F)c[nH]c2=O)n1 : B: -19.18%
- CC(C)C1CN(C(=O)c2cc(=O)[nH]c(=O)[nH]2)CCC(=O)N1CC1CC1 (centres undefined) : A: 14.38%; B: -24.68%
- COCC1CC2(CCN(Cc3cnn(C)c3)CC2)CN1c1ncccn1.O=C(O)C(F)(F)F.O=C(O)C(F)(F)F (centres undefined) : A: 1.523%
- CC(C)c1ncc(-c2cc(C3CCC3)nc(N)c2C#N)cn1 : A: -2.722%; B: 8.944%
- CCOCc1ccc(CNC2=NCCCN2)cc1.I : A: 1.791%
- Cc1cnc(C(=O)NC(COCC(C)C)c2ccco2)cn1 (centres undefined) : A: 6.054%; B: -0.4806%
- CCc1ccc(C(NCC(N)=O)C(C)(C)C)o1 (centres undefined) : A: 3.912%; B: -0.7543%
- COc1cccc(CCC2CCCCN2)c1 (centres undefined) : B: 3.056%
- CC(O)CN1CCC(CNCc2ccc(S(C)(=O)=O)cc2)CC1 (centres undefined) : A: 0.6568%; B: -10.41%
- CCOC(=O)C1CCN(C(=O)CN2CCCC2c2cc(C)no2)CC1 (centres undefined) : A: -4.017%; B: -22%
- [H][C@]12CN(Cc3ccc(F)cc3)C[C@@]1([H])OCCN(S(C)(=O)=O)C2 : A: -8.693%
- c1cnc(N2CCCC(c3csc(Nc4cnccn4)n3)C2)nc1 (centres undefined) : A: -13.23%; B: 23.83%
- [H][C@@]12C[C@H](C(=O)NCc3cccnc3)[C@@]([H])(CN(CC(C)C)C1)O2 : A: -0.1596%
- COc1cccc(-c2ccnc(C3CCNCC3)c2)c1 : A: -33.54%; B: 15.31%
- COCc1noc(CCNC(=O)c2ccc(C3CCCO3)s2)n1 (centres undefined) : A: 25.35%; B: -11.81%
- COc1ccc(-c2cnc(CN(CC(N)=O)C3CCCC3)o2)cc1 : A: 9.294%; B: -48.76%
- COc1ccc(S(=O)(=O)NCC(c2cccn2C)N(C)C)c(C)c1 (centres undefined) : A: -22.67%; B: -7.44%
- CC(NC(=O)Cn1ccc(=O)n(C)c1=O)c1ccccc1F (centres undefined) : A: -2.037%; B: -9.382%
- O=C(O)C(F)(F)F.[H][C@]12CCN(C(=O)c3ccnnc3)CC[C@]1([H])N(CCOC)CCO2 : A: 2.394%
- COc1cccc(-c2cc(C(=O)N3N=C(C)CC3(O)C(F)(F)F)[nH]n2)c1 (centres undefined) : A: -3.823%; B: -15.69%
- O=C1CSCN1Cc1nc(-c2ccc(N3CCCCC3)cc2)no1 : A: 8.959%; B: 27.44%

Some entries from above, unchanged:

structure,A,B
CC(C)C1CN(C(=O)c2cc(=O)[nH]c(=O)[nH]2)CCC(=O)N1CC1CC1 (centres undefined),14.38,-24.68
CS(=O)(=O)CCOCCNc1ccc(C(F)(F)F)cc1C#N,11.3,-23.93
O=C(O)C(F)(F)F.[H][C@]12CCN(C(=O)c3ccnnc3)CC[C@]1([H])N(CCOC)CCO2,2.394,-
CC(C)CC(NC(=O)CN(C)c1cnccn1)c1cccs1 (centres undefined),4.432,-27.75

Measurements from “University of Dundee, Small-Polar-MMV Screening Library” (2021), ChEMBL document CHEMBL3988442.